Taken from: PubChem BioAssay AID504784 (Drosophila RNAi Screening Center, 2011)

Assay: 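Search for regulators of lipid droplet storage in oleate-fed fly cells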 (primary screen)
System: Drosophila Kc167 embryonic cells
Reagents: long dsRNA against Drosophila genes, about 250 ng dsRNA per well
Timing: 4 days
Conditions: cells fed 400 µM oleic acid bound to BSA
Detection: 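Microscope images give a droplet-to-nucleus area ratio, taken as log and converted to a screen-wide B-score; higher values mean greater lipid storage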
Reading the numbers: droplet/nuclear area B-score: higher = more stored lipid (overstorage)
In all, the deposit lists about 17,000 reagents; below is a random part of those that have a named target and a result. 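Each column is one replicate's B-score; the combined score over replicates was not deposited, so single values may mislead.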 The numbers tell different reagents against one gene apart. Names joined by + are all predicted targets of the reagent. Not all columns of the deposit are shown.

predicted target | dsRNA no. | droplet/nuclear area B-score, replicate 1
CG11369 | 1 | -0.591
CG31248 | 1 | 0.53
ck | 1 | -0.0379
eIF6 | 1 | -0.159
CG10674 | 1 | -0.108
CG13733 | 1 | 0.339
CG2291 | 1 | -0.717
Sc2 | 1 | -2.4
ATPsyngamma | 1 | 1.79
CG11883 | 1 | 0.0389
CG33514 | 1 | 0.689
CG33514 | 2 | 0.209
CG33514 | 3 | 0.442
CG2004 | 1 | 0.948
mRpL2 | 1 | 3.17
CG14650 | 1 | 0.635
CG12057 | 1 | -0.643
bel | 1 | -1.32
CG31301 | 1 | 0.0558
eve | 1 | -3.01
CG11737 | 1 | 0.672
Kaz1-ORFB + Kaz1-ORFA | 1 | -0.267
CG31141 | 1 | 0.619
CG14720 | 1 | -0.837
Or94b | 1 | -0.517
CG14856 | 1 | -0.248
CG13239 | 1 | 0.343
Myd88 | 1 | 0.0303
l(2)37Cd | 1 | 1.84
kl-2 | 1 | 1.16
CG8564 | 1 | -0.146
slmo + CG34179 | 1 | 6.15
CG4022 | 1 | -0.604
DCTN3-p24 | 1 | 0.734

A run of entries taken from the entries so far, as a working copy:
predicted target | dsRNA no. | droplet/nuclear area B-score, replicate 1
CG2291 | 1 | -0.717
Sc2 | 1 | -2.4
ATPsyngamma | 1 | 1.79
CG11883 | 1 | 0.0389
CG33514 | 1 | 0.689
CG33514 | 2 | 0.209

Additional results follow.
predicted target | dsRNA no. | droplet/nuclear area B-score, replicate 1
Obp57a | 1 | -0.683
CG32086 | 1 | -0.761
fbp | 1 | -0.663
Ir56c | 1 | 1.89
Nepl15 | 1 | -2.24
CG11679 | 1 | -1.58
Rcd2 | 1 | -2.18
CG5139 | 1 | -0.0302
CG11444 | 1 | 0.34
l(2)k01209 | 1 | 0.292
CG18853 | 1 | -0.782
nst | 1 | 2.14
Listericin | 1 | 0.354
CG2113 | 1 | -0.225
CG11529 | 1 | 2.01
Cmpk | 1 | -0.0138
Gbp2 | 1 | 0.00417
DENR | 1 | -0.612
EndoGI | 1 | -0.633
gek | 1 | 0.0206
CG3308 | 1 | 1.73
MFS12 | 1 | -0.0302
CG6923 | 1 | -0.839
CG7634 | 1 | -0.21
CG11226 | 1 | -1.97
ind | 1 | 2.26
ind | 2 | 0.0229
tbrd-2 | 1 | -1.19
Tektin-C | 1 | 2.76
zormin | 1 | 0.0534
zormin | 2 | 0.0398
zormin | 3 | -2.05
zormin | 4 | -1.25
zormin | 5 | 0.114
zormin | 6 | 3.4
zormin | 7 | -1.18
GLaz | 1 | 3.69
CG30046 | 1 | 0.119
CG16904 | 1 | -0.0162
GstD11 | 1 | 0.686
Lint-O | 1 | -1.06
CG14400 | 1 | 0.0131
bisc | 1 | 0.673
Gr36a | 1 | -0.522
Zip48C | 1 | -1.66
CG4017 | 1 | -0.00603
CG9289 | 1 | -1.72
ACC | 1 | 1.49
ACC | 2 | -2.32
